# No constants are given. Whether binding was seen depends on the method and setting. For some of these results: In cells and extracts the contact can be indirect. Some results given as binding are weak or reduced against the parent protein; the word gives no strength.
# T1: Rad50 protein of Sulfolobus acidocaldarius (endogenous) (S. acidocaldarius (endogenous in S. acidocaldarius DSM 639)) (UniProt O33600)
# T1 sequence: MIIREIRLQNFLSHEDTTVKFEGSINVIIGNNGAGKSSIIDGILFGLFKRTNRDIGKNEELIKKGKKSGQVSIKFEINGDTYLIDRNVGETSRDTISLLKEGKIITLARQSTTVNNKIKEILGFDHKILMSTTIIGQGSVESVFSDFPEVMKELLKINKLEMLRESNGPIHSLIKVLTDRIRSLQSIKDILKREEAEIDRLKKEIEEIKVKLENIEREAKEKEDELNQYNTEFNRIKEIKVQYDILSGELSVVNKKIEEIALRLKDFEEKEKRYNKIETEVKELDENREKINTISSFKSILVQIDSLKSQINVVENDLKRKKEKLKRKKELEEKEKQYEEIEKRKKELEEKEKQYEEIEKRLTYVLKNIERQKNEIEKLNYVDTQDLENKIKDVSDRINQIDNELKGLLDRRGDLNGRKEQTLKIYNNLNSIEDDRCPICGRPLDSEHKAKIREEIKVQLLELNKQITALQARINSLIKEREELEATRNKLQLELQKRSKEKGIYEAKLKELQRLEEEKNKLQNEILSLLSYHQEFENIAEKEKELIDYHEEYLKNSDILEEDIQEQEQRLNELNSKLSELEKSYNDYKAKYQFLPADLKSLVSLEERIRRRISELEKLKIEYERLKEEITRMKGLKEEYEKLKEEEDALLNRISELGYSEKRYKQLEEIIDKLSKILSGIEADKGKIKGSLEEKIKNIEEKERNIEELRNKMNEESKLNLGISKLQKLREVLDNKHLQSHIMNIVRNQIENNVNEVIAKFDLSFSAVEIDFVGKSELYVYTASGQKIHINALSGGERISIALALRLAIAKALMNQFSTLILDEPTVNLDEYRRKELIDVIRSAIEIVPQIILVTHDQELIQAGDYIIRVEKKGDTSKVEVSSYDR
# T2: Rad50 recombinant protein (Sulfolobus acidocaldarius) (S. acidocaldarius) (UniProt O33600)
# T2 sequence: T1 sequence
# B1: Mre11 recombinant protein (Sulfolobus acidocaldarius) (natural protein, S. acidocaldarius, UniProt Q8NKQ0 1-382, looked up)
# chain: MQLLHISDTHLGKRQYNLESREKDVYDTFTQLIDIAINEHVKAVIHTGDLFDVNNPPNRAKLHAIKELKRLKDHNIPFICIAGDHDSPKRKEEIYPQRILEEFNLIKILQKIDNRVKLENVEVYGISHISNVSVNDLKEQLSKVKPETRKSILMLHQGIRTYLPYQGAWQIELSDLPKGFSLYAVGHLHSRRKDYLDGGALIEIAGSPDIMREEEIEDYQKSKKGATLIDMSGDLPSINYINVNIRDQLVLDINVDKIEQSIESVIQKLKENVKNDKKPILHIELEGTVPIRKDVLMTKLQALRDYVEHYRIYKNNIVSIKEENLKTKLKTTYSSLNDIIADYLKGIGYTDEETKIIIDIINEEDEKKVEELLKKFAGVEDK
# notes: Mre11, Sulfolobus acidocaldarius, purified recombinant protein; source: recombinant, purified (Ni-NTA, gel filtration through Sephadex 200)
# B2: HerA recombinant protein (Sulfolobus acidocaldarius) (natural protein, S. acidocaldarius, UniProt F2Z5Z6 1-495, looked up)
# chain: MTIGYIIGSATINEATAILEQKIRAGYYVILEYDGDKILGLITNVYTGSPLLDDNLNDVKFVQRIKQLEANKIPFFIKARIKLLCKLDGKFTQPDLPPVAGTPVRLASDEELSTVFSAGDVRIGKLIGSNVEVKIRLNPLSRHLAILAATGSGKSNTVAILSQRLVEIGGSILIFDYHGEYYDSTLPNLNIIEPKLNPLYLSVNEFATLLEIRENANIQYRIIRRTFNQLKEEINNEIKEGKTSLAELNSNFFERLKVKIEEEGRNEKRKESKDEVLNKVEDFAERYSDIIDITFGDVINKIKLGKINVVNLSSLDEDAIDAIVAHYLRRILTSRKENKIKKDSGLKFPILTVVEEAHVLLSKDTNTLTKKWAGRIAREGRKFGVGLIIVSQRPKGLDENILSQMTNKIILKIVEPSDKKYVLETSDNLSEDLADGLSSLDTGEAIIIGNVVKLPTIIKIDKFEGKLSGSDPNLTEEWKRAKEEEIVHSDVSDWG
# notes: HerA bipolar DNA helicase, Sulfolobus acidocaldarius, purified recombinant protein; also called HerA bipolar helicase
# B3: NurA nuclease of Sulfolobus acidocaldarius (endogenous) (protein, UniProt F2Z6F6 1-332)
# chain: MIDKAYEELIKMKEKIMRDSYTIHKELSESVESILNELWINYSPESVEHSKKLLAIDGGMWVKETRQGVIFIVNAKAIVFEGINEINSEGKVLVHIFSPGNYAKERIELLMQLLELQLALKLVENVDYVLLDGSFSKKLGRHKSELKVDLLDDIVSIDKILSLEEKDEDNMLRFLIAENQLVLSELVSRYKDKLLFISKNSKSSDLFKQAYSDITILELFTQNCGYSKILEKKIDENYILSRKASKLLSGLNYYFTNLRLEPSERLFRLDFFNADKIFEYLKVLKPVSLKGYPYPLIKVHKDVRVGKEDRERIYSILEMKRKDISWWPSQFY
# B4: NurA recombinant protein (Sulfolobus acidocaldarius) (protein, UniProt F2Z6F6 1-332)
# chain: B3 chain
# Columns and labels:
# [1] = biological target: T1, Rad50 protein of Sulfolobus acidocaldarius (endogenous) (S. acidocaldarius (endogenous in S. acidocaldarius DSM 639)); assay: co-IP; anti-Rad50 purified IgGs and protein A-sepharose on extracts of exponentially growing S. acidocaldarius cells (total extract, soluble fraction, chromosomal-enriched fraction treated with DNase I; irradiated or non-irradiated cells); 4°C; IP buffer 20 mM Hepes pH 7.5, 100 mM NaCl, 15 mM MgCl2, 5 mM beta-mercaptoethanol; immunoblot
# [2] = biological target: T2, Rad50 recombinant protein (Sulfolobus acidocaldarius) (S. acidocaldarius); assay: co-IP; anti-Rad50 purified IgGs and protein A-sepharose on a mixture of purified recombinant proteins (60 nM Rad50, Mre11 and NurA, 300 nM HerA) in IP buffer (20 mM Hepes pH 7.5, 100 mM NaCl, 15 mM MgCl2, 5 mM beta-mercaptoethanol); 4°C; immunoblot; both purified
Binder,binding [1],binding [2]
B1,binds,–
B2,binds,–
B3,no binding,–
B4,–,"no binding (tested: 60 nM NurA, 60 nM Rad50)"
